Source: the supplement of paper PMC10849652
The list shows a part of the results. Residues, ends and D or L forms follow the SMILES beside them. *: point of attachment. Cbz = O=C(OCc1ccccc1)*

Sequences of proteins named here, by UniProt entry; tags and fusion partners are left off. A change or cut given only in a name is not applied to a line headed by its entry.
UniProt O00534: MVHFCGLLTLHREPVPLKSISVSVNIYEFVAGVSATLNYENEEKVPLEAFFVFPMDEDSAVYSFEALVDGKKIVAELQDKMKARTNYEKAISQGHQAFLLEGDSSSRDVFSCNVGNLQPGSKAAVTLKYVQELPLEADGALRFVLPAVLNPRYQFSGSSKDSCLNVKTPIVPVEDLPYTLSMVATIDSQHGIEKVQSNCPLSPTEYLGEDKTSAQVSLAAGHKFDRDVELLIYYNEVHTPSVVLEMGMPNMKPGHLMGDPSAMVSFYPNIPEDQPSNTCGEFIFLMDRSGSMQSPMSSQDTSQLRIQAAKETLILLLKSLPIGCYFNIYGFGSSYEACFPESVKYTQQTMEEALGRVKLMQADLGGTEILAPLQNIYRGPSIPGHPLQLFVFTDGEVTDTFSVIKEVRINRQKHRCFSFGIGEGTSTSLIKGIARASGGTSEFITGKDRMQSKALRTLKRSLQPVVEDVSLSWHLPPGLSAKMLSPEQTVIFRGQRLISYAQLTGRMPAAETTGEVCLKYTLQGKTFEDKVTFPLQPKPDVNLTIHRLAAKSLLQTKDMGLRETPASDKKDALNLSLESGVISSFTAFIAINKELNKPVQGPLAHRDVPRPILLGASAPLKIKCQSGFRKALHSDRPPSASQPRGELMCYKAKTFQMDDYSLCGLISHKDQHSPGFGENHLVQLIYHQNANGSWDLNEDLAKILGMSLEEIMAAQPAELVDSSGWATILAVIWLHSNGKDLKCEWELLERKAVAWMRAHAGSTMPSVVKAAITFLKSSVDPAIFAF
UniProt Q4G0F5, whole entry, looked up: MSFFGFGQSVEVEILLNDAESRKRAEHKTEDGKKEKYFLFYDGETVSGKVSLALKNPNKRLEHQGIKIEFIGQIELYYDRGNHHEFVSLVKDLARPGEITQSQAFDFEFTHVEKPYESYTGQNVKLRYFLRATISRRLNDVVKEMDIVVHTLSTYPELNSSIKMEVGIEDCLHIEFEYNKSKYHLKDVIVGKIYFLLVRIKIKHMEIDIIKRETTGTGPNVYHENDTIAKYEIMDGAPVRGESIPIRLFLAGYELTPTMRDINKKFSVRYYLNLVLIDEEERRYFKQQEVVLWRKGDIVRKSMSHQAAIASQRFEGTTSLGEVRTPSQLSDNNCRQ
UniProt Q8TF74: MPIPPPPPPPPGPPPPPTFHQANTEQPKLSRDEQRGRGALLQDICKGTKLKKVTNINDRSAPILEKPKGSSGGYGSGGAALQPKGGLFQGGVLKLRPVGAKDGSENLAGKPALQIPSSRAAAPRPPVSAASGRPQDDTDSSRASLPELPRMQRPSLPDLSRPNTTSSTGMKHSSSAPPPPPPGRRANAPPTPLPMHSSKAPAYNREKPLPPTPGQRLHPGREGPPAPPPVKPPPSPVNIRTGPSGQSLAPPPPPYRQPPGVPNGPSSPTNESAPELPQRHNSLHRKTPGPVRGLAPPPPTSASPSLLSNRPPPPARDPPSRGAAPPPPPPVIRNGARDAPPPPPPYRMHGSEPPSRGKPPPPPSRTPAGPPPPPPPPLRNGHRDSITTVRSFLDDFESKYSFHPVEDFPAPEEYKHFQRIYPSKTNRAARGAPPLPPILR
UniProt Q9H9H4: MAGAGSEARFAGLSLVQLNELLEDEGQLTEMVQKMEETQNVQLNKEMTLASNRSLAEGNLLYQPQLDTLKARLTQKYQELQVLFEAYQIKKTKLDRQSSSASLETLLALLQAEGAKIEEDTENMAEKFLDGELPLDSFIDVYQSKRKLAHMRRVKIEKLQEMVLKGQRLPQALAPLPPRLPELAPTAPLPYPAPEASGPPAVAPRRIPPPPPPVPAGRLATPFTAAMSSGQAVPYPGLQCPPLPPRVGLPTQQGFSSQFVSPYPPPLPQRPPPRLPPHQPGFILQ
UniProt Q9BQA1, whole entry, looked up: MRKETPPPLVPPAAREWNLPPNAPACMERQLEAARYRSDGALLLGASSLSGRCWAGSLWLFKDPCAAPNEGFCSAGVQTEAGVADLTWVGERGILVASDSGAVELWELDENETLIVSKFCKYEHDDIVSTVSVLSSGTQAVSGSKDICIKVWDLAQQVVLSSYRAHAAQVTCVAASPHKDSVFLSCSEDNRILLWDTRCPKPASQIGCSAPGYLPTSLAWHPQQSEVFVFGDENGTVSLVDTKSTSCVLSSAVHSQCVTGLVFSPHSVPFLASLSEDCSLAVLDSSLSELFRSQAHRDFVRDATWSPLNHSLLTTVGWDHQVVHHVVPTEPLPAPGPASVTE
UniProt O95785: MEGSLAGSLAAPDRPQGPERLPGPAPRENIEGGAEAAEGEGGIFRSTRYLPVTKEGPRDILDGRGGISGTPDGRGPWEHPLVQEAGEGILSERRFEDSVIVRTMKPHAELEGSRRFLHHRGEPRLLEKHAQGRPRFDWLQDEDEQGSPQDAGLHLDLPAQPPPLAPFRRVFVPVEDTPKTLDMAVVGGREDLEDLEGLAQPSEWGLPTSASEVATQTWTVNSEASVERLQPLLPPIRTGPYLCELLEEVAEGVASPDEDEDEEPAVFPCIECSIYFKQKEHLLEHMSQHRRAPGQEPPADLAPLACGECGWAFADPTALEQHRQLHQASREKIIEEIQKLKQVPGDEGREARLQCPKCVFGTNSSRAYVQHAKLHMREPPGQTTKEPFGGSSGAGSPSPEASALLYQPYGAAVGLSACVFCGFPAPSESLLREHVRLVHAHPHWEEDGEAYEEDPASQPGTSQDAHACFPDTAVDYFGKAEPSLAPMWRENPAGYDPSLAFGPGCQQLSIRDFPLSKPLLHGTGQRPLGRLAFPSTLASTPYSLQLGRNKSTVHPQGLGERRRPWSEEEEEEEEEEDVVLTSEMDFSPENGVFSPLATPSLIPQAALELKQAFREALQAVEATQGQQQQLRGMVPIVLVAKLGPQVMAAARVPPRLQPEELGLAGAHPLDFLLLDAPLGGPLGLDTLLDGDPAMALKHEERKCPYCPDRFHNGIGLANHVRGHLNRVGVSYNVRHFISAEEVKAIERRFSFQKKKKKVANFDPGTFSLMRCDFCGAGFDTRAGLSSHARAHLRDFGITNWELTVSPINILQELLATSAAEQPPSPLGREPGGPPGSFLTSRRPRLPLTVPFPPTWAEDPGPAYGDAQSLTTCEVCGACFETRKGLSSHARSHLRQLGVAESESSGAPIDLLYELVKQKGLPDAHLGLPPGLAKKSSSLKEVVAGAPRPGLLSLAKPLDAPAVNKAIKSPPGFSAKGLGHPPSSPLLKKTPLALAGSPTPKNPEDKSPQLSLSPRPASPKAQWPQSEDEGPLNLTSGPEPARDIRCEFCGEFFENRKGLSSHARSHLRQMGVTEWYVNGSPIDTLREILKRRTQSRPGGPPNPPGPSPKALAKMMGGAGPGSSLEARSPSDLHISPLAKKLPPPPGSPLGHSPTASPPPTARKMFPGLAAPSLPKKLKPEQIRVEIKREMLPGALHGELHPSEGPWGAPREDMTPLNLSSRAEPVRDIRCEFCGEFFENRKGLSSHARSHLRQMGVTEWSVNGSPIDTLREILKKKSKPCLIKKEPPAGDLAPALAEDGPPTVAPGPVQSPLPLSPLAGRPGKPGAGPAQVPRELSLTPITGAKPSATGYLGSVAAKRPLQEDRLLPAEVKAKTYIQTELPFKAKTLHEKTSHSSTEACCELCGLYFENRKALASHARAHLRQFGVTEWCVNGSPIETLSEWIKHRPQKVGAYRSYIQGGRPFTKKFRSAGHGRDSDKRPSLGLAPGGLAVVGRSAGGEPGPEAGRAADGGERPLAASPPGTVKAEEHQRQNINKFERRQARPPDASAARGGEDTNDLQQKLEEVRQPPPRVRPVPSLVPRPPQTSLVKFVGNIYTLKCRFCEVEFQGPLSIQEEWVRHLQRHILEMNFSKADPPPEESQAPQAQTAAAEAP
UniProt Q9UNX4: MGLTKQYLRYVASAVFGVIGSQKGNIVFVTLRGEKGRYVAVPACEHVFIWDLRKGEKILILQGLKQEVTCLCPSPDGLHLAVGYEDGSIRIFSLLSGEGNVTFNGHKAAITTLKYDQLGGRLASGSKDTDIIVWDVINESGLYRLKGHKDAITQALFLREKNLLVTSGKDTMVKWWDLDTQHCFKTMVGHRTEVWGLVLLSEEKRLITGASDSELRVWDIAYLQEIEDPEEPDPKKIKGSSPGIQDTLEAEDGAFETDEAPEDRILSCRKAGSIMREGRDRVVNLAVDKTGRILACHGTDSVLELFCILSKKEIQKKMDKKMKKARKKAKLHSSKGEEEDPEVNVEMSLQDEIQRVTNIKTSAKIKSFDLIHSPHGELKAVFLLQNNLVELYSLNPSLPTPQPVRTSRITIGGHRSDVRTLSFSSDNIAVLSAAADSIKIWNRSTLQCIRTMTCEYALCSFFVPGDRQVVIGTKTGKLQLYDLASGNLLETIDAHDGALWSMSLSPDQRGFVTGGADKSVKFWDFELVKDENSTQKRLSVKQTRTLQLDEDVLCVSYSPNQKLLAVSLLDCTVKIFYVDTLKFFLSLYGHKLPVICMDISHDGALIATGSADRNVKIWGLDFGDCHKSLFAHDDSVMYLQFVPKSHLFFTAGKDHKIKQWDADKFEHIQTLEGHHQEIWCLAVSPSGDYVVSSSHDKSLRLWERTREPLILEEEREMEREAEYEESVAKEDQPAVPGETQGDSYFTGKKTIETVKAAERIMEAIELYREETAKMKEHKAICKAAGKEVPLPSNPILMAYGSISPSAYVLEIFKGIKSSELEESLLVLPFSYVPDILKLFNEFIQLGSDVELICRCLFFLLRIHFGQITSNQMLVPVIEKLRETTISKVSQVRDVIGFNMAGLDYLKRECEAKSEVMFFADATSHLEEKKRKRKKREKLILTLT
UniProt Q9NNW5: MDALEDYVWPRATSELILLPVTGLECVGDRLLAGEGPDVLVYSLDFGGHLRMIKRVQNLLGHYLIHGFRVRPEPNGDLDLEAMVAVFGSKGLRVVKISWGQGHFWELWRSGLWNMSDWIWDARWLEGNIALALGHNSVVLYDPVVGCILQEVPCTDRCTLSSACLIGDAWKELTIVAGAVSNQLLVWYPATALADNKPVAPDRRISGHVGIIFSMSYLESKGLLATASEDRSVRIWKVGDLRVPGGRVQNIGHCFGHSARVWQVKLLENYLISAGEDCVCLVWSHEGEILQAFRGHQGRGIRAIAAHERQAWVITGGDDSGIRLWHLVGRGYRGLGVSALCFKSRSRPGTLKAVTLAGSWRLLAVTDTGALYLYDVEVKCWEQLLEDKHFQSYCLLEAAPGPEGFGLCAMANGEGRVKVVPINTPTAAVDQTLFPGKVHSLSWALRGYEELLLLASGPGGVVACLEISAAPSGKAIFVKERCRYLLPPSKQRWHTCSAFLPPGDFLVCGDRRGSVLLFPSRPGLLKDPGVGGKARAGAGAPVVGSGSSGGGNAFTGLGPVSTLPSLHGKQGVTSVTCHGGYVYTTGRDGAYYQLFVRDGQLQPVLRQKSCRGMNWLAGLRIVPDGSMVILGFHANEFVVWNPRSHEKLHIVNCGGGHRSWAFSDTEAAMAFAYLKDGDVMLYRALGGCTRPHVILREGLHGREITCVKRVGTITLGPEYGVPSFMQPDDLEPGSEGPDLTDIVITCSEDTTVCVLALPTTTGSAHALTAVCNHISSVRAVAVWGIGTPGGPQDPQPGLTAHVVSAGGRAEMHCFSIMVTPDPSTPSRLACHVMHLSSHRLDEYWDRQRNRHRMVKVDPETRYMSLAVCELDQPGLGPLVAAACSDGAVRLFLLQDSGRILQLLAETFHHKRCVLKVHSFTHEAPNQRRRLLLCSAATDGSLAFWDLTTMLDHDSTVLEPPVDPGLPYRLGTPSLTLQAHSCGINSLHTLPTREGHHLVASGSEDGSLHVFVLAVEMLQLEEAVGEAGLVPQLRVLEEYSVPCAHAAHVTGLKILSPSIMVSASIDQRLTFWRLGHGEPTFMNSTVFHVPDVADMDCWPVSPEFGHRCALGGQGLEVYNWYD
UniProt Q96S55: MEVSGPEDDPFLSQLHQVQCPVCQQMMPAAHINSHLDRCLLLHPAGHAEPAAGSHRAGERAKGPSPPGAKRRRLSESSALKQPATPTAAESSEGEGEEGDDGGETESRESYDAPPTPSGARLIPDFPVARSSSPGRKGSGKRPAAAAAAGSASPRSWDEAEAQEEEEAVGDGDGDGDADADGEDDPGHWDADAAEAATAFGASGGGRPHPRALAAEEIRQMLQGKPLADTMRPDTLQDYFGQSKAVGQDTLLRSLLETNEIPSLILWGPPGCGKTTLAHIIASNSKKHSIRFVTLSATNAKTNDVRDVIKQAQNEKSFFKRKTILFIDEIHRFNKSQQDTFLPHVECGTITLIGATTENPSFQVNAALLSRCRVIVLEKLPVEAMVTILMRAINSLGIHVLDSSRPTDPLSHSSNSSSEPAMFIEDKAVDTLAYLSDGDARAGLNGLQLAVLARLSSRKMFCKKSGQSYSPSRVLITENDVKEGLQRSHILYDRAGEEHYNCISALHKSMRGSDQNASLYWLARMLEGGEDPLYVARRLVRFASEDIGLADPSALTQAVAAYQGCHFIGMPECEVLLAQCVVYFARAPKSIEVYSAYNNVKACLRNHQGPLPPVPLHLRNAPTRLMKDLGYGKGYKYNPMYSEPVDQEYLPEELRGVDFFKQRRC

Each target was assayed with CC(C)C[C@@H](C=O)NC(=O)[C@H](CC(C)C)NC(=O)[C@H](CC(C)C)NC(=O)OCc1ccccc1 (assay: log2 fold change, soluble protein after heating vs DMSO (PISA); higher = thermal stabilisation; K562 cells, 10 uM, 30 min; active = over 0.2 and 3.5 SD of the protein, either way, in both replicates (recomputed)).
Outline: (§1)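 Soluble protein was quantified by TMTpro 16plex LC-MS/MS after channel sums were equalised. It was obtained as the supernatant after 21,000xg for 90 min from pooled aliquots of K562 cells (2×10^6 cells/mL, 10 μM compound, 30 min) heated for 3 min across 48°C-58°C and extracted in PBS with 0.5% NP-40 at 4°C. Thermal stability values are relative to control samples and come from duplicates. They are given as log2 fold changes.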

For WDR45B (UniProt Q5MNZ6), which log2 fold change is on record?
Its log2 fold change is inactive: 0.025.

Which log2 fold change does the source give for VWA5A (UniProt O00534) here?
Its log2 fold change is inactive: 0.103.

For VPS26B (UniProt Q4G0F5), which log2 fold change is on record?
The log2 fold change was inactive: -0.059.

How did the log2 fold change turn out when VPS41 (UniProt P49754) was run?
Its log2 fold change is inactive: 0.026.

How did the log2 fold change turn out when WRAP53 (UniProt Q9BUR4) was run?
Its log2 fold change is inactive: 0.07.

How did the log2 fold change turn out when WDR36 (UniProt Q8NI36) was run?
The log2 fold change was inactive: 0.133.

For WIPF2 (UniProt Q8TF74), which log2 fold change is on record?
The log2 fold change was inactive: 0.054.

With WDR44 (UniProt Q5JSH3) as the target, how does the log2 fold change read?
The log2 fold change was inactive: -0.001.

For VEZT (UniProt Q9HBM0), which log2 fold change is on record?
The log2 fold change was inactive: 0.149.

How did the log2 fold change turn out when VPS36 (UniProt Q86VN1) was run?
Its log2 fold change is inactive: 0.043.

Which log2 fold change does the source give for WASF1 (UniProt Q92558) here?
The log2 fold change was inactive: 0.064.

For VPS37B (UniProt Q9H9H4), which log2 fold change is on record?
The log2 fold change was inactive: -0.024.

Which log2 fold change does the source give for VRK3 (UniProt Q8IV63) here?
The log2 fold change was inactive: -0.2.

For WDR59 (UniProt Q6PJI9), which log2 fold change is on record?
The log2 fold change was inactive: 0.025.

WDR77 (UniProt Q9BQA1) was tested. Which log2 fold change did it give?
The log2 fold change was inactive: -0.127.

For WIZ (UniProt O95785), which log2 fold change is on record?
Its log2 fold change is inactive: 0.01.

With WDR12 (UniProt Q9GZL7) as the target, how does the log2 fold change read?
The log2 fold change was inactive: -0.026.

How did the log2 fold change turn out when VPS45 (UniProt Q9NRW7) was run?
The log2 fold change was inactive: 0.059.

Which log2 fold change does the source give for WDR3 (UniProt Q9UNX4) here?
Its log2 fold change is inactive: 0.231.

VPS13A (UniProt Q96RL7) was tested. Which log2 fold change did it give?
The log2 fold change was inactive: -0.005.

How did the log2 fold change turn out when WDR74 (UniProt Q6RFH5) was run?
Its log2 fold change is inactive: 0.138.

With WDR6 (UniProt Q9NNW5) as the target, how does the log2 fold change read?
Its log2 fold change is inactive: -0.036.

VIM (UniProt P08670) was tested. Which log2 fold change did it give?
Its log2 fold change is inactive: 0.035.

How did the log2 fold change turn out when WDFY1 (UniProt Q8IWB7) was run?
Its log2 fold change is inactive: 0.004.

With WDR92 (UniProt Q96MX6) as the target, how does the log2 fold change read?
Its log2 fold change is inactive: 0.02.

For WDR26, A0A499FIZ0, which log2 fold change is on record?
Its log2 fold change is inactive: 0.008.

How did the log2 fold change turn out when WDR73 (UniProt Q6P4I2) was run?
Its log2 fold change is inactive: -0.061.

For VKORC1L1, A0A3B3ISV4, which log2 fold change is on record?
Its log2 fold change is inactive: -0.156.

With VMP1 (UniProt Q96GC9) as the target, how does the log2 fold change read?
The log2 fold change was inactive: -0.034.

With VPS29 isoform 2 (UniProt Q9UBQ0) as the target, how does the log2 fold change read?
Its log2 fold change is inactive: -0.025.

WDR5 (UniProt P61964) was tested. Which log2 fold change did it give?
The log2 fold change was inactive: 0.007.

With WDR45 (UniProt Q9Y484) as the target, how does the log2 fold change read?
The log2 fold change was inactive: -0.022.

Which log2 fold change does the source give for WRNIP1 (UniProt Q96S55) here?
Its log2 fold change is inactive: -0.041.

How did the log2 fold change turn out when WARS (UniProt P23381) was run?
Its log2 fold change is inactive: -0.01.

Each target was assayed with CC(C)N(C[C@H]1O[C@@H](n2cnc3c(N)ncnc32)[C@H](O)[C@@H]1O)[C@H]1C[C@@H](CCc2nc3cc(C(C)(C)C)ccc3[nH]2)C1 [pinometostat] in the same assay as above.
Outline: as §1

With WDR45B (UniProt Q5MNZ6) as the target, how does the log2 fold change read?
Its log2 fold change is inactive: -0.008.

How did the log2 fold change turn out when VWA5A (UniProt O00534) was run?
The log2 fold change was inactive: 0.075.

Which log2 fold change does the source give for VPS26B (UniProt Q4G0F5) here?
Its log2 fold change is inactive: 0.022.

How did the log2 fold change turn out when VPS41 (UniProt P49754) was run?
Its log2 fold change is inactive: 0.037.

For WRAP53 (UniProt Q9BUR4), which log2 fold change is on record?
Its log2 fold change is inactive: -0.015.

For WDR36 (UniProt Q8NI36), which log2 fold change is on record?
Its log2 fold change is inactive: 0.182.

WIPF2 (UniProt Q8TF74) was tested. Which log2 fold change did it give?
The log2 fold change was inactive: 0.051.

Which log2 fold change does the source give for WDR44 (UniProt Q5JSH3) here?
The log2 fold change was inactive: -0.049.

How did the log2 fold change turn out when VEZT (UniProt Q9HBM0) was run?
Its log2 fold change is inactive: -0.019.

For VPS36 (UniProt Q86VN1), which log2 fold change is on record?
The log2 fold change was inactive: -0.012.

WASF1 (UniProt Q92558) was tested. Which log2 fold change did it give?
Its log2 fold change is inactive: 0.023.

With VPS37B (UniProt Q9H9H4) as the target, how does the log2 fold change read?
The log2 fold change was inactive: -0.002.

For VRK3 (UniProt Q8IV63), which log2 fold change is on record?
The log2 fold change was inactive: 0.02.

With WDR59 (UniProt Q6PJI9) as the target, how does the log2 fold change read?
The log2 fold change was inactive: -0.009.

With WDR77 (UniProt Q9BQA1) as the target, how does the log2 fold change read?
The log2 fold change was inactive: 0.003.

For WIZ (UniProt O95785), which log2 fold change is on record?
Its log2 fold change is inactive: 0.032.

With WDR12 (UniProt Q9GZL7) as the target, how does the log2 fold change read?
The log2 fold change was inactive: -0.026.

How did the log2 fold change turn out when VPS45 (UniProt Q9NRW7) was run?
Its log2 fold change is inactive: 0.03.

With WDR3 (UniProt Q9UNX4) as the target, how does the log2 fold change read?
The log2 fold change was inactive: 0.341.

VPS13A (UniProt Q96RL7) was tested. Which log2 fold change did it give?
The log2 fold change was inactive: 0.006.

WDR74 (UniProt Q6RFH5) was tested. Which log2 fold change did it give?
The log2 fold change was inactive: 0.152.

How did the log2 fold change turn out when WDR6 (UniProt Q9NNW5) was run?
The log2 fold change was inactive: 0.07.

How did the log2 fold change turn out when VIM (UniProt P08670) was run?
Its log2 fold change is inactive: 0.168.

With WDFY1 (UniProt Q8IWB7) as the target, how does the log2 fold change read?
Its log2 fold change is inactive: 0.007.

Which log2 fold change does the source give for WDR92 (UniProt Q96MX6) here?
The log2 fold change was inactive: 0.091.

How did the log2 fold change turn out when WDR26, A0A499FIZ0 was run?
Its log2 fold change is inactive: 0.017.

Which log2 fold change does the source give for WDR73 (UniProt Q6P4I2) here?
Its log2 fold change is inactive: -0.004.

For VKORC1L1, A0A3B3ISV4, which log2 fold change is on record?
Its log2 fold change is inactive: -0.11.

For VMP1 (UniProt Q96GC9), which log2 fold change is on record?
Its log2 fold change is inactive: 0.001.

Which log2 fold change does the source give for VPS29 isoform 2 (UniProt Q9UBQ0) here?
Its log2 fold change is inactive: -0.016.

WDR5 (UniProt P61964) was tested. Which log2 fold change did it give?
The log2 fold change was inactive: 0.104.

WDR45 (UniProt Q9Y484) was tested. Which log2 fold change did it give?
Its log2 fold change is inactive: -0.017.

For WRNIP1 (UniProt Q96S55), which log2 fold change is on record?
The log2 fold change was inactive: 0.06.

How did the log2 fold change turn out when WARS (UniProt P23381) was run?
Its log2 fold change is inactive: -0.013.

What follows are targets tested with CC1=C(C(CC(=O)N1)C2=CC=C(C=C2)C(F)(F)F)C(=O)NC3=C(C=C4C(=C3)C=NN4)F in the same assay as above.
Outline: as §1

WDR45B (UniProt Q5MNZ6) was tested. Which log2 fold change did it give?
Its log2 fold change is inactive: 0.02.

With VWA5A (UniProt O00534) as the target, how does the log2 fold change read?
Its log2 fold change is inactive: -0.114.

How did the log2 fold change turn out when VPS26B (UniProt Q4G0F5) was run?
Its log2 fold change is inactive: -0.04.

How did the log2 fold change turn out when WRAP53 (UniProt Q9BUR4) was run?
Its log2 fold change is inactive: -0.075.

With WDR36 (UniProt Q8NI36) as the target, how does the log2 fold change read?
Its log2 fold change is inactive: -0.055.

Which log2 fold change does the source give for WIPF2 (UniProt Q8TF74) here?
Its log2 fold change is inactive: 0.025.

Which log2 fold change does the source give for WDR44 (UniProt Q5JSH3) here?
The log2 fold change was inactive: 0.002.

Which log2 fold change does the source give for VEZT (UniProt Q9HBM0) here?
The log2 fold change was inactive: 0.041.

VPS36 (UniProt Q86VN1) was tested. Which log2 fold change did it give?
Its log2 fold change is inactive: -0.012.

WASF1 (UniProt Q92558) was tested. Which log2 fold change did it give?
The log2 fold change was inactive: 0.029.

How did the log2 fold change turn out when VPS37B (UniProt Q9H9H4) was run?
Its log2 fold change is inactive: 0.036.

Which log2 fold change does the source give for VRK3 (UniProt Q8IV63) here?
Its log2 fold change is inactive: -0.038.

With WDR59 (UniProt Q6PJI9) as the target, how does the log2 fold change read?
The log2 fold change was inactive: 0.089.

How did the log2 fold change turn out when WDR77 (UniProt Q9BQA1) was run?
Its log2 fold change is inactive: -0.008.

WIZ (UniProt O95785) was tested. Which log2 fold change did it give?
Its log2 fold change is inactive: 0.059.

With WDR12 (UniProt Q9GZL7) as the target, how does the log2 fold change read?
The log2 fold change was inactive: 0.064.

How did the log2 fold change turn out when VPS45 (UniProt Q9NRW7) was run?
The log2 fold change was inactive: 0.014.

Which log2 fold change does the source give for WDR3 (UniProt Q9UNX4) here?
The log2 fold change was inactive: -0.025.

How did the log2 fold change turn out when VPS13A (UniProt Q96RL7) was run?
Its log2 fold change is inactive: -0.001.

How did the log2 fold change turn out when WDR74 (UniProt Q6RFH5) was run?
Its log2 fold change is inactive: -0.068.

For WDR6 (UniProt Q9NNW5), which log2 fold change is on record?
Its log2 fold change is inactive: 0.012.

How did the log2 fold change turn out when VIM (UniProt P08670) was run?
Its log2 fold change is inactive: 0.081.

For WDFY1 (UniProt Q8IWB7), which log2 fold change is on record?
Its log2 fold change is inactive: 0.022.

With WDR92 (UniProt Q96MX6) as the target, how does the log2 fold change read?
The log2 fold change was inactive: -0.085.

With WDR26, A0A499FIZ0 as the target, how does the log2 fold change read?
Its log2 fold change is inactive: 0.026.

Which log2 fold change does the source give for WDR73 (UniProt Q6P4I2) here?
Its log2 fold change is inactive: 0.032.

Which log2 fold change does the source give for VKORC1L1, A0A3B3ISV4 here?
Its log2 fold change is inactive: 0.032.

VMP1 (UniProt Q96GC9) was tested. Which log2 fold change did it give?
The log2 fold change was inactive: 0.004.

VPS29 isoform 2 (UniProt Q9UBQ0) was tested. Which log2 fold change did it give?
The log2 fold change was inactive: 0.031.

For WDR5 (UniProt P61964), which log2 fold change is on record?
The log2 fold change was inactive: 0.055.

With WDR45 (UniProt Q9Y484) as the target, how does the log2 fold change read?
The log2 fold change was inactive: -0.001.

WRNIP1 (UniProt Q96S55) was tested. Which log2 fold change did it give?
The log2 fold change was inactive: 0.028.

How did the log2 fold change turn out when WARS (UniProt P23381) was run?
The log2 fold change was inactive: 0.012.
